Assay results as given in patent publication US4277394 (dated 1981).
[ ]: non-standard residue; d: D form. The star is where a group is joined. Cbz = O=C(OCc1ccccc1)*; NHNH2 = NN*

assay: general procedure: solution-phase peptide synthesis; DCC/HONB; DCC/HOBT; conditions: coupling step

First: Cbz-Y[dL]GF-OMe
Second: BOC-Tyr-(D)-Met(O)-Gly-Phe-NH-NH-CO-CH2 -CH3
The step yield of the first is higher: 89% for the first, 72% for the second.

Compared with “Z-Tyr-(D)-Ala-Gly-Phe-NH-NH-CO-OCH2 -CH3”, Z-Tyr-(D)-Ala-Gly-MePhe-OCH3 is lower in step yield: 93% for the first, 56% for the second.

Going from Z-Tyr-(D)-Ala-Gly-Phe-NH-NH-BOC to “Z-Tyr-(D)-Ala-Gly-Phe-NH-NH-CO-CH2 -CH2 -CH3”, the step yield falls from 67% to 50%.

Compared with Z-Tyr-(D)-Leu-Gly-Phe-NH-NH-CO-CH3, “Z-MeTyr(Bu^t)-(D)-Ala-Gly-MePhe-NH-NH-CO-CH2 -CH3” is higher in step yield: 74% for the first, 86% for the second.

In the case of “Z-Tyr-(D)-Ala-Gly-Phe-NH-NH-CO-CH2 -CH2 -NH-Z.”, the step yield is reported as 56%.

same assay, conditions: late stage modification step

First: Z-Tyr-(D)-Ala-Gly-MePhe-NH-NH-CO-CH2 -CH2 -CO-CH3
Second: Z-Tyr-(D)-Ala-Gly-MePhe-NH-NH-CO-O-CH2 -CH3
The step yield of the first is lower: 70% for the first, 73% for the second.

Going from H-Tyr-(D)-Ala-Gly-Phe-NH-NH-CO-CH2 -CH3 to “Z-Tyr-(D)-Ala-Gly-MePhe-NH-NH-CO-CH2 -CH2 -Cl”, the step yield rises from 52% to 85%.

Compared with “Z-Tyr-(D)-Ala-Gly-Phe-NH-NH-CO-CH2 -CH2 -OH”, “Z-Tyr-(D)-Ala-Gly-MePhe-NH-NH-CO-CH2 -CH2 -CH2 -CH3” is higher in step yield: 53% for the first, 82% for the second.

Going from “H-Tyr-(D)-Ala-Gly-Phe-NH-NH-CO-CH2 -CH(CH3)2” to “Z-Tyr-(D)-Ala-Gly-MePhe-NH-NH-CO-CH2 -CH2 -CH3”, the step yield rises from 62% to 83%.

Going from “Z-Tyr-(D)-Ala-Gly-MePhe-NH-NH-CO-CH2 -CH3” to “Z-Tyr-(D)-Ala-Gly-MePhe-NH-NH-CO-CH2 -CH(CH3)2”, the step yield falls from 87% to 82%.

“H-Tyr-(D)-Ala-Gly-Phe-NH-NH-CO-(CH2)2 -Cl” and H-Y[dL]GF-NHNH2 are the same in step yield: 60% for the first, 60% for the second.

First: Cbz-Y[dL]GF-NHNH2
Second: H-Tyr-(D)-Ala-Gly-Phe-NH-NH-CO-(CH2)3 -CH3
The step yield of the first is higher: 80% for the first, 56% for the second.

First: H-Tyr-(D)-Ala-Gly-MePhe-NH-NH2
Second: H-Tyr-(D)-Ala-Gly-Phe-NH-NH-CO-CH2 CH2 CH3
The step yield of the first is higher: 52% for the first, 44% for the second.

Compared with “H-Tyr-(D)-Ala-Gly-Phe-NH-NH-CO-OCH2 -CH3”, “H-Tyr-(D)-Ala-Gly-Phe-NH-NH-CO-CH2 -CH2 -NH2” is higher in step yield: 53% for the first, 61% for the second.

Compared with “Z-Tyr-(D)-Ala-Gly-Phe-NH-NH-CO-(CH2)3 -CH3”, “Z-Tyr-(D)-Ala-Gly-MePhe-NH-NH-CO-CH(OH)-CH3” is higher in step yield: 70% for the first, 81% for the second.

Going from “Z-Tyr-(D)-Ala-Gly-MePhe-NH-NH-CO-CH2 -CH2 -O-CH2 -CH3” to Z-Tyr-(D)-Ala-Gly-Phe-NH-NH2, the step yield rises from 73% to 96%.

Going from Z-Tyr-(D)-Ala-Gly-Phe-NH-NH-CO-CH2 -CH3 to “H-Tyr-(D)-Ala-Gly-Phe-NH-NH-CO-CH2 -CH2 -OH”, the step yield falls from 65% to 40%.

First: Z-Tyr-(D)-Ala-Gly-Phe-NH-NH-CO-CH2 -CH(CH3)2
Second: H-Tyr-(D)-Leu-Gly-Phe-NH-NH-CO-CH3
The step yield of the first is higher: 53% for the first, 50% for the second.

Compared with Z-Tyr-(D)-Ala-Gly-MePhe-NH-NH2, “Z-Tyr-(D)-Ala-Gly-Phe-NH-NH-CO-(CH2)2 -Cl” is lower in step yield: 82% for the first, 59% for the second.

Work on H-Tyr-(D)-Ala-Gly-Phe-NH-NH2 yielded a step yield of 38%.
